Data taken from publication PMC12661447, “Cyanophycinase is required for heterotrophy in cyanobacteria” (The Journal of Biological Chemistry, 2025).
Results are given in words; binding and its absence hold for the method and conditions named. Binding seen in cells or lysates may run through a third protein. Some binding calls cover weakened binding; strength is not graded here. Tags and fused reporters may be left off the sequences shown.

Biological target: T1, FLAG-tagged variant of ArgD (acetylornithine aminotransferase) (Synechocystis sp. PCC 6803) (UniProt P73133)
T1 sequence: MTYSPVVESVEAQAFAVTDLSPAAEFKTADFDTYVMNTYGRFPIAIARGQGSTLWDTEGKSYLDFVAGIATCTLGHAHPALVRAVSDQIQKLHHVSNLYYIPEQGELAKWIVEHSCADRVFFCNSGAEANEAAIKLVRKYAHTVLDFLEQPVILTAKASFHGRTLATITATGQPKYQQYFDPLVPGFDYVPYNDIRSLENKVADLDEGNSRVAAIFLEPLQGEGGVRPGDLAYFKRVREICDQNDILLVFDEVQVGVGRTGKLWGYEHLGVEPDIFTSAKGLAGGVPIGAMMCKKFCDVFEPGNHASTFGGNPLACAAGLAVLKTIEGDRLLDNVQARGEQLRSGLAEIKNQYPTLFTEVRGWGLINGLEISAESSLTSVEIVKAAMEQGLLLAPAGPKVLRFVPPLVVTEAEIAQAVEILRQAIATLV
Assay: co-IP; FLAG-affinity coimmunopurification of f.ArgD from soluble proteins of f.argD/ΔargD Synechocystis cells grown under PAT or LAH conditions; eluates on SDS-PAGE, blot probed with antibodies against CphB and the FLAG tag

binding: binds
B1: cyanophycinase (CphB) (enzyme, UniProt P73832 1-271)
chain: MPLSSQPAILIIGGAEDKVHGREILQTFWSRSGGNDAIIGIIPSASREPLLIGERYQTIFSDMGVKELKVLDIRDRAQGDDSGYRLFVEQCTGIFMTGGDQLRLCGLLADTPLMDRIRQRVHNGEISLAGTSAGAAVMGHHMIAGGSSGEWPNRALVDMAVGLGIVPEIVVDQHFHNRNRMARLLSAISTHPELLGLGIDEDTCAMFERDGSVKVIGQGTVSFVDARDMSYTNAALVGANAPLSLHNLRLNILVHGEVYHQVKQRAFPRVT
